Experimental data: US20110008774A1
Results are given in words; binding and its absence hold for the method and conditions named. Some binding calls cover weakened binding; strength is not graded here. Where a sequence is shown, tags or fusion partners need not be part of it.

B1: wt scFv13 (human anti-β-gal single-chain variable fragment, unfused) (scFv)
scFv: MADYKDDDDKGGSAEVQLVESGGGLVKPGGSLRLSCAASGFTFSNYSMNWVRQAPGKGLEWVSSISSSSSYIYYADFVKGRFTISRDNAKNSLYLQMNSLRAEDTAVYYCARSSITIFGGGMDVWGRGTLVTVSSGGGGSGGGGSGGGGSQSVLTQPASVSGSPGQSITISCAGTSSDVGGYNYVSWYQQHPGKAPKLMIYEGSKRPSGVSNRFSGSKSGNTASLTISGLQAEDEADYYCSSYTTRSTRVFGGGTKLAVLGAAAEQKLISEEDLNGAAELHHHHHH
B2: scFv13-SecM17 fusion (wt scFv13 fused to the 17-residue SecM stall sequence) (scFv, not shown: small tags and cut ends)
scFv (part 1 of 2): B1 scFv
scFv (part 2 of 2): AGSAAGSGFSTPVWISQAQGIRAGP

Tests used:
[1] = target: β-galactosidase (β-gal, Sigma) (E. coli) [β-galactosidase: P00722]; test: ELISA of soluble cell lysate on β-gal-coated plates, anti-FLAG detection
[2] = target: β-galactosidase (β-gal, Sigma) (E. coli) [β-galactosidase: P00722]; test: ELISA of 70S ribosome fractions on β-gal-coated plates; mRNA recovered after panning on immobilized β-gal
[3] = target: β-galactosidase (β-gal, Sigma) (E. coli) [β-galactosidase: P00722]; test: panning of ARM complexes on immobilized β-gal, RT-PCR of the eluted mRNA
[4] = target: β-galactosidase (β-gal, Sigma) (E. coli) [β-galactosidase: P00722]; test: ELISA of 70S ribosome fractions on β-gal-coated plates

| binding [1] | binding [2] | binding [3] | binding [4] | Binder |
| --- | --- | --- | --- | --- |
| binds |  |  |  | B1 |
| binds | binds | binds | binds | B2 |
